These are yes or no findings as the source states them, for the method shown. Binding seen in cells or lysates may run through a third protein. Here binding means that the protein was enriched with, or labelled near, the bait; the list need not be complete.

The chains behind the UniProt entries cited, without tags or fusion partners.
UniProt Q86WV6: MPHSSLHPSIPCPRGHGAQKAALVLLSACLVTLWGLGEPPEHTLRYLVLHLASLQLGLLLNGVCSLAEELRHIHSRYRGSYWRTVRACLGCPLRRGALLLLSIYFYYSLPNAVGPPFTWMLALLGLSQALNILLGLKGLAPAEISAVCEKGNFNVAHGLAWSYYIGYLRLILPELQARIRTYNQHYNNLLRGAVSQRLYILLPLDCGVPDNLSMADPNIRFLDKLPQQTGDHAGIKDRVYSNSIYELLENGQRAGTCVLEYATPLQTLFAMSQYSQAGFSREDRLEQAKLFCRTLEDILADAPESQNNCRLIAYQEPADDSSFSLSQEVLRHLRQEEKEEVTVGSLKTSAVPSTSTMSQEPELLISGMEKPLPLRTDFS

The labels stand for the following.
B1: DEK (protein, UniProt P35659 1-375)
chain: MSASAPAAEGEGTPTQPASEKEPEMPGPREESEEEEDEDDEEEEEEEKEKSLIVEGKREKKKVERLTMQVSSLQREPFTIAQGKGQKLCEIERIHFFLSKKKTDELRNLHKLLYNRPGTVSSLKKNVGQFSGFPFEKGSVQYKKKEEMLKKFRNAMLKSICEVLDLERSGVNSELVKRILNFLMHPKPSGKPLPKSKKTCSKGSKKERNSSGMARKAKRTKCPEILSDESSSDEDEKKNKEESSDDEDKESEEEPPKKTAKREKPKQKATSKSKKSVKSANVKKADSSTTKKNQNSSKKESESEDSSDDEPLIKKLKKPPTDEELKETIKKLLASANLEEVTMKQICKKVYENYPTYDLTERKDFIKTTVKELIS
B2: NOP2 (protein, UniProt P46087 1-812)
chain: MGRKLDPTKEKRGPGRKARKQKGAETELVRFLPAVSDENSKRLSSRARKRAAKRRLGSVEAPKTNKSPEAKPLPGKLPKGISAGAVQTAGKKGPQSLFNAPRGKKRPAPGSDEEEEEEDSEEDGMVNHGDLWGSEDDADTVDDYGADSNSEDEEEGEALLPIERAARKQKAREAAAGIQWSEEETEDEEEEKEVTPESGPPKVEEADGGLQINVDEEPFVLPPAGEMEQDAQAPDLQRVHKRIQDIVGILRDFGAQREEGRSRSEYLNRLKKDLAIYYSYGDFLLGKLMDLFPLSELVEFLEANEVPRPVTLRTNTLKTRRRDLAQALINRGVNLDPLGKWSKTGLVVYDSSVPIGATPEYLAGHYMLQGASSMLPVMALAPQEHERILDMCCAPGGKTSYMAQLMKNTGVILANDANAERLKSVVGNLHRLGVTNTIISHYDGRQFPKVVGGFDRVLLDAPCSGTGVISKDPAVKTNKDEKDILRCAHLQKELLLSAIDSVNATSKTGGYLVYCTCSITVEENEWVVDYALKKRNVRLVPTGLDFGQEGFTRFRERRFHPSLRSTRRFYPHTHNMDGFFIAKFKKFSNSIPQSQTGNSETATPTNVDLPQVIPKSENSSQPAKKAKGAAKTKQQLQKQQHPKKASFQKLNGISKGADSELSTVPSVTKTQASSSFQDSSQPAGKAEGIREPKVTGKLKQRSPKLQSSKKVAFLRQNAPPKGTDTQTPAVLSPSKTQATLKPKDHHQPLGRAKGVEKQQLPEQPFEKAAFQKQNDTPKGPQPPTVSPIRSSRPPPAKRKKSQSRGNSQLLLS
B3: VRK1 (protein, UniProt Q99986 1-396)
chain: MPRVKAAQAGRQSSAKRHLAEQFAVGEIITDMAKKEWKVGLPIGQGGFGCIYLADMNSSESVGSDAPCVVKVEPSDNGPLFTELKFYQRAAKPEQIQKWIRTRKLKYLGVPKYWGSGLHDKNGKSYRFMIMDRFGSDLQKIYEANAKRFSRKTVLQLSLRILDILEYIHEHEYVHGDIKASNLLLNYKNPDQVYLVDYGLAYRYCPEGVHKEYKEDPKRCHDGTIEFTSIDAHNGVAPSRRGDLEILGYCMIQWLTGHLPWEDNLKDPKYVRDSKIRYRENIASLMDKCFPEKNKPGEIAKYMETVKLLDYTEKPLYENLRDILLQGLKAIGSKDDGKLDLSVVENGGLKAKTITKKRKKEIEESKEPGVEDTEWSNTQTEEAIQTRSRTRKRVQK
B4: CCDC86 (protein, UniProt Q9H6F5 1-360)
chain: MDTPLRRSRRLGGLRPESPESLTSVSRTRRALVEFESNPEETREPGSPPSVQRAGLGSPERPPKTSPGSPRLQQGAGLESPQGQPEPGAASPQRQQDLHLESPQRQPEYSPESPRCQPKPSEEAPKCSQDQGVLASELAQNKEELTPGAPQHQLPPVPGSPEPYPGQQAPGPEPSQPLLELTPRAPGSPRGQHEPSKPPPAGETVTGGFGAKKRKGSSSQAPASKKLNKEELPVIPKGKPKSGRVWKDRSKKRFSQMLQDKPLRTSWQRKMKERQERKLAKDFARHLEEEKERRRQEKKQRRAENLKRRLENERKAEVVQVIRNPAKLKRAKKKQLRSIEKRDTLALLQKQPPQQPAAKI
B5: SRSF2 (protein, UniProt Q01130 1-221)
chain: MSYGRPPPDVEGMTSLKVDNLTYRTSPDTLRRVFEKYGRVGDVYIPRDRYTKESRGFAFVRFHDKRDAEDAMDAMDGAVLDGRELRVQMARYGRPPDSHHSRRGPPPRRYGGGGYGRRSRSPRRRRRSRSRSRSRSRSRSRSRYSRSKSRSRTRSRSRSTSKSRSARRSKSKSSSVSRSRSRSRSRSRSRSPPPVSKRESKSRSRSKSPPKSPEEEGAVSS
B6: RRMJ3 (protein, UniProt Q8IY81 1-847)
chain: MGKKGKVGKSRRDKFYHLAKETGYRSRSAFKLIQLNRRFQFLQKARALLDLCAAPGGWLQVAAKFMPVSSLIVGVDLVPIKPLPNVVTLQQDITTERCRQALRKELKTWKVDVVLNDGAPNVGASWVHDAYSQAHLTLMALRLACDFLARGGSFITKVFRSRDYQPLLWIFQQLFRRVQATKPQASRHESAEIFVVCQGFLAPDKVDSKFFDPKFAFKEVEVQAKTVTELVTKKKPKAEGYAEGDLTLYHRTSVTDFLRAANPVDFLSKASEIMVDDEELAQHPATTEDIRVCCQDIRVLGRKELRSLLNWRTKLRRYVAKKLKEQAKALDISLSSGEEDEGDEEDSTAGTTKQPSKEEEEEEEEEQLNQTLAEMKAQEVAELKRKKKKLLREQRKQRERVELKMDLPGVSIADEGETGMFSLSTIRGHQLLEEVTQGDMSAADTFLSDLPRDDIYVSDVEDDGDDTSLDSDLDPEELAGVRGHQGLRDQKRMRLTEVQDDKEEEEEENPLLVPLEEKAVLQEEQANLWFSKGSFAGIEDDADEALEISQAQLLFENRRKGRQQQQKQQLPQTPPSCLKTEIMSPLYQDEAPKGTEASSGTEAATGLEGEEKDGISDSDSSTSSEEEESWEPLRGKKRSRGPKSDDDGFEIVPIEDPAKHRILDPEGLALGAVIASSKKAKRDLIDNSFNRYTFNEDEGELPEWFVQEEKQHRIRQLPVGKKEVEHYRKRWREINARPIKKVAEAKARKKRRMLKRLEQTRKKAEAVVNTVDISEREKVAQLRSLYKKAGLGKEKRHVTYVVAKKGVGRKVRRPAGVRGHFKVVDSRMKKDQRAQQRKEQKKKHKRK
B7: ILF3 (protein, UniProt Q12906 1-894)
chain: MRPMRIFVNDDRHVMAKHSSVYPTQEELEAVQNMVSHTERALKAVSDWIDEQEKGSSEQAESDNMDVPPEDDSKEGAGEQKTEHMTRTLRGVMRVGLVAKGLLLKGDLDLELVLLCKEKPTTALLDKVADNLAIQLAAVTEDKYEILQSVDDAAIVIKNTKEPPLSLTIHLTSPVVREEMEKVLAGETLSVNDPPDVLDRQKCLAALASLRHAKWFQARANGLKSCVIVIRVLRDLCTRVPTWGPLRGWPLELLCEKSIGTANRPMGAGEALRRVLECLASGIVMPDGSGIYDPCEKEATDAIGHLDRQQREDITQSAQHALRLAAFGQLHKVLGMDPLPSKMPKKPKNENPVDYTVQIPPSTTYAITPMKRPMEEDGEEKSPSKKKKKIQKKEEKAEPPQAMNALMRLNQLKPGLQYKLVSQTGPVHAPIFTMSVEVDGNSFEASGPSKKTAKLHVAVKVLQDMGLPTGAEGRDSSKGEDSAEETEAKPAVVAPAPVVEAVSTPSAAFPSDATAEQGPILTKHGKNPVMELNEKRRGLKYELISETGGSHDKRFVMEVEVDGQKFQGAGSNKKVAKAYAALAALEKLFPDTPLALDANKKKRAPVPVRGGPKFAAKPHNPGFGMGGPMHNEVPPPPNLRGRGRGGSIRGRGRGRGFGGANHGGYMNAGAGYGSYGYGGNSATAGYSQFYSNGGHSGNASGGGGGGGGGSSGYGSYYQGDNYNSPVPPKHAGKKQPHGGQQKPSYGSGYQSHQGQQQSYNQSPYSNYGPPQGKQKGYNHGQGSYSYSNSYNSPGGGGGSDYNYESKFNYSGSGGRSGGNSYGSGGASYNPGSHGGYGGGSGGGSSYQGKQGGYSQSNYNSPGSGQNYSGPPSSYQSSQGGYGRNADHSMNYQYR

In this experiment the target is STimulator of INterferon Genes (STING) fused to GFP (UniProt Q86WV6). The experiment in a line: affinity purification with mass spectrometry; nuclear envelopes isolated from HEK293T cells expressing STING-GFP, reversibly cross-linked with ortho-phenanthroline copper, resuspended in RIPA and sonicated, immunoprecipitated with GFP antibodies on Protein A-sepharose, released with 50 mM DTT, tandem mass spectrometry; mock-transfected cells as control.
Take B1: the binding entry is on record as “binds”. As for B2, the entry is “binds”; as for B3, “binds”; as for B4, “binds”.

Regarding B5, the binding result is on record as “binds”.

Turning to B6, the binding entry is listed as “binds”. As for B7, the binding result is “binds”.
